These are yes or no findings as the source states them, for the method shown. In cells and extracts the contact can be indirect. Some binding calls cover weakened binding; strength is not graded here.
Molecular target: Actin filament associated protein 1 like 1 (human (endogenous in AGS)) (UniProt Q8TED9)
Experiment: co-IP; AGS cell lysate; 1000 ug protein incubated with 10 ug IP antibody (AFAP1L1 or VAV2) or control IgG at 4 °C overnight; magnetic beads (Pierce Classic Magnetic IP/Co-IP Kit), 1 h at room temperature; eluate analysed by western blot

Protein sequences, listed by entry. Tags and fused reporters are not part of them.
UniProt Q8TED9: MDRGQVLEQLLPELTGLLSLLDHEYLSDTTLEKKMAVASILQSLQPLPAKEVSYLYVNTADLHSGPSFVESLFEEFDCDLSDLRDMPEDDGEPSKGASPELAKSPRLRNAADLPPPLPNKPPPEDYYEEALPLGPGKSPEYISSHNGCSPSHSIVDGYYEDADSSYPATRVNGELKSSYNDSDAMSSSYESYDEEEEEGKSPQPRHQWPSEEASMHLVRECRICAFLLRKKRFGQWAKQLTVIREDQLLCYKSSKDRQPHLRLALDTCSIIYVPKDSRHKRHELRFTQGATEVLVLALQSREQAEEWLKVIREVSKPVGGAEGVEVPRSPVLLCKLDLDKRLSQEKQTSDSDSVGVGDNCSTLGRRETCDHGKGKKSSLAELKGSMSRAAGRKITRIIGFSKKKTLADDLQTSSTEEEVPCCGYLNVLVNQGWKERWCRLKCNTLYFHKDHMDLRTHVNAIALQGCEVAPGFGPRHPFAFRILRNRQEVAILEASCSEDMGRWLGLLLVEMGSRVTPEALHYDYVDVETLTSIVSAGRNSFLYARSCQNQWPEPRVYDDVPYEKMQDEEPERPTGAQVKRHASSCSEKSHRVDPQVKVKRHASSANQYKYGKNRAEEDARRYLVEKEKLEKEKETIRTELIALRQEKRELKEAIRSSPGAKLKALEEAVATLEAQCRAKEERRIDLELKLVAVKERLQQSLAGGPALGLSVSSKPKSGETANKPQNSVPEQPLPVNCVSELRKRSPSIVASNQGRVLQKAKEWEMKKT

binding: binds
B1: VAV guanine nucleotide exchange factor 2 (protein, UniProt P52735 1-878)
chain: MEQWRQCGRWLIDCKVLPPNHRVVWPSAVVFDLAQALRDGVLLCQLLHNLSPGSIDLKDINFRPQMSQFLCLKNIRTFLKVCHDKFGLRNSELFDPFDLFDVRDFGKVISAVSRLSLHSIAQNKGIRPFPSEETTENDDDVYRSLEELADEHDLGEDIYDCVPCEDGGDDIYEDIIKVEVQQPMIRYMQKMGMTEDDKRNCCLLEIQETEAKYYRTLEDIEKNYMSPLRLVLSPADMAAVFINLEDLIKVHHSFLRAIDVSVMVGGSTLAKVFLDFKERLLIYGEYCSHMEHAQNTLNQLLASREDFRQKVEECTLKVQDGKFKLQDLLVVPMQRVLKYHLLLKELLSHSAERPERQQLKEALEAMQDLAMYINEVKRDKETLRKISEFQSSIENLQVKLEEFGRPKIDGELKVRSIVNHTKQDRYLFLFDKVVIVCKRKGYSYELKEIIELLFHKMTDDPMNNKDVKKSHGKMWSYGFYLIHLQGKQGFQFFCKTEDMKRKWMEQFEMAMSNIKPDKANANHHSFQMYTFDKTTNCKACKMFLRGTFYQGYMCTKCGVGAHKECLEVIPPCKFTSPADLDASGAGPGPKMVAMQNYHGNPAPPGKPVLTFQTGDVLELLRGDPESPWWEGRLVQTRKSGYFPSSSVKPCPVDGRPPISRPPSREIDYTAYPWFAGNMERQQTDNLLKSHASGTYLIRERPAEAERFAISIKFNDEVKHIKVVEKDNWIHITEAKKFDSLLELVEYYQCHSLKESFKQLDTTLKYPYKSRERSASRASSRSPASCASYNFSFLSPQGLSFASQGPSAPFWSVFTPRVIGTAVARYNFAARDMRELSLREGDVVRIYSRIGGDQGWWKGETNGRIGWFPSTYVEEEGIQ

— paper PMC9835296
